According to publication PMC4858687:
Results are given in words; binding and its absence hold for the method and conditions named. Binding seen in cells or lysates may run through a third protein. Some results given as binding are weak or reduced against the parent protein; the word gives no strength.

Protein sequences, listed by entry. Tags and fused reporters are not part of them.
UniProt Q9UEE9: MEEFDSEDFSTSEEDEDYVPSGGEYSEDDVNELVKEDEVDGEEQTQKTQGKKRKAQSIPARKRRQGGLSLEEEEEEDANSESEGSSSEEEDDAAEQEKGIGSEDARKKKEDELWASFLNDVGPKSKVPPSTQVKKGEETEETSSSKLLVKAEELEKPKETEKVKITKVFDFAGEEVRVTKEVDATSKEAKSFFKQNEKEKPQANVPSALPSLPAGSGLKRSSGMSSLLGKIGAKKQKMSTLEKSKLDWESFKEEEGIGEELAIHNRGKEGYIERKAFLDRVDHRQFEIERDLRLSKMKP

Target: GST::CFDP1 (human) (UniProt Q9UEE9)
Assay: pull-down; GST or GST::CFDP1 bound to glutathione-agarose beads, incubated overnight at 4 °C with extracts of HeLa cells transfected with pcDNA3.1/nV5-DEST::CFDP1 in 20 mM Tris pH 8, 150 mM NaCl, 0.5% Nonidet P-40, 1 mM EDTA; five washes; Western blotting (anti-V5); only the target purified

V5::CFDP1 (from UniProt Q9UEE9 1-299) was tested, and the binding was “binds”.
